Values from PubChem BioAssay AID1259275 (Sanger Institute, 2017).
The whole screen tested 794 reagents; shown is a random part of them. In the full data, 13 (1.6%) were called active. 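Calls mark knock-downs lethal by themselves, not drug synergy; drugs went in a day after transfection, with DMSO as vehicle.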 Entries without a mark were called inactive. No viability above 1 is reported: the scale is capped. Not stated in the record: the amount of reagent, the time to read-out.

- Test: 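Kinase and colorectal cancer genes needed for cancer cell survival, with or without drugs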 (primary screen)
- Cell system: COLO320HSR human colorectal cancer cells
- Reagents: siRNA pool against human genes
- Conditions: anchor drug added one day after transfection: BYL719 at 1 µM, cetuximab at 5 µg/ml or trametinib at 10 nM; DMSO as vehicle arm
- Measurement: 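Viability averaged over replicates as a fraction of the non-targeting pool, a robust z-score for knock-down alone, and synergy scores with BYL719 (1 µM), cetuximab (5 µg/ml) or trametinib (10 nM)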
- Scale: robust z-score, siRNA alone: higher = more viable cells; strongly negative means essential; viability, knock-down alone (DMSO): higher = more viable cells; synergy score with BYL719 and synergy score with cetuximab and synergy score with trametinib: higher = stronger combined killing with drug
- Active means: 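a gene is called essential when its robust z-score without drug falls below -3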
- Meaning of the calls: active = essential (siRNA alone); inactive = no change (siRNA alone)

| Gene | robust z-score, siRNA alone | viability, knock-down alone (DMSO) (fraction of control) | synergy score with BYL719 | synergy score with cetuximab | synergy score with trametinib |
| --- | --- | --- | --- | --- | --- |
| CDK6 (cyclin dependent kinase 6) | 0.726 | 1 | 0.0789 | -0.0893 | -0.0259 |
| TSSK6 (testis specific serine kinase 6) | -1.26 | 0.821 | 0.00906 | -0.0588 | -0.0419 |
| MAP3K5 (mitogen-activated protein kinase kinase kinase 5) | 0.726 | 1 | -0.217 | -0.0893 | -0.0259 |
| CDK11A (cyclin dependent kinase 11A) | -3.24 (active) | 0.642 | -0.322 | -0.00446 | 0.0145 |
| CDK8 (cyclin dependent kinase 8) | 0.726 | 1 | -0.169 | -0.0893 | -0.0259 |
| ULK1 (unc-51 like autophagy activating kinase 1) | 0.726 | 1 | -0.163 | -0.0893 | -0.0129 |
| STK32C (serine/threonine kinase 32C) | 0.726 | 1 | -0.1 | -0.0893 | -0.0259 |
| BRSK1 (BR serine/threonine kinase 1) | -0.355 | 0.902 | -0.15 | -0.13 | -0.113 |
| AMHR2 (anti-Mullerian hormone receptor type 2) | 0.395 | 0.97 | -0.0826 | 0.0821 | -0.00143 |
| GAK (cyclin G associated kinase) | -0.0522 | 0.93 | -0.149 | -0.153 | -0.0944 |
| IP6K3 (inositol hexakisphosphate kinase 3) | -1.51 | 0.798 | -0.0833 | -0.149 | -0.0945 |
| TTBK2 (tau tubulin kinase 2) | -2.59 | 0.701 | -0.194 | -0.251 | -0.207 |
| COASY (Coenzyme A synthase) | 0.0974 | 0.943 | 0.0331 | -0.141 | 0.0429 |
| MAP3K14 (mitogen-activated protein kinase kinase kinase 14) | -1.66 | 0.785 | -0.0337 | -0.122 | -0.0122 |
| PRKD1 (protein kinase D1) | 0.675 | 0.995 | -0.203 | -0.0566 | 0.0362 |
| ALPK1 (alpha kinase 1) | 0.196 | 0.952 | -0.0426 | -0.115 | -0.0725 |
| MYLK2 (myosin light chain kinase 2) | 0.46 | 0.976 | -0.134 | -0.111 | -0.0178 |
| EIF2AK2 (eukaryotic translation initiation factor 2 alpha kinase 2) | 0.552 | 0.984 | -0.0145 | -0.104 | 0.0113 |
| PRKCQ (protein kinase C theta) | 0.726 | 1 | -0.103 | -0.0893 | -0.0259 |
| NIM1K (NIM1 serine/threonine protein kinase) | 0.726 | 1 | -0.296 | -0.0893 | -0.0259 |
| APC (APC regulator of Wnt signaling pathway) | 0.322 | 0.964 | -0.225 | -0.123 | -0.0615 |
| AK1 (adenylate kinase 1) | 0.167 | 0.95 | 0.065 | -0.132 | -0.0273 |
| PIP5K1A (phosphatidylinositol-4-phosphate 5-kinase type 1 alpha) | -1.81 | 0.771 | -0.0477 | -0.0872 | -0.00336 |
| TSKS (testis specific serine kinase substrate) | 0.726 | 1 | -0.12 | -0.0893 | -0.0259 |
| CAMK2G (calcium/calmodulin dependent protein kinase II gamma) | 0.726 | 1 | -0.181 | -0.0893 | -0.0259 |
| DUSP21 (dual specificity phosphatase 21) | 0.726 | 1 | -0.0549 | 0.0258 | -0.0259 |
| BRD2 (bromodomain containing 2) | 0.726 | 1 | -0.146 | -0.0893 | -0.0259 |
| SNRK (SNF related kinase) | -0.23 | 0.914 | -0.168 | -0.145 | -0.0799 |
| IRAK2 (interleukin 1 receptor associated kinase 2) | -0.689 | 0.872 | -0.136 | -0.127 | -0.15 |
| SRPK3 (SRSF protein kinase 3) | 0.726 | 1 | -0.0961 | -0.0893 | -0.0259 |
| CHEK1 (checkpoint kinase 1) | -2.37 | 0.72 | -0.0926 | -0.214 | -0.22 |
| EPHA8 (EPH receptor A8) | 0.726 | 1 | -0.0946 | -0.0893 | -0.0259 |
| RPS6KC1 (ribosomal protein S6 kinase C1) | 0.726 | 1 | -0.141 | -0.0893 | -0.0259 |
| GRK7 (G protein-coupled receptor kinase 7) | -0.0507 | 0.93 | -0.0923 | -0.126 | 0.0248 |
| CALM1 (calmodulin 1) | 0.726 | 1 | -0.213 | -0.00181 | -0.0131 |
| PANK1 (pantothenate kinase 1) | 0.498 | 0.979 | -0.234 | -0.108 | -0.046 |
| TRIO (trio Rho guanine nucleotide exchange factor) | -0.497 | 0.89 | -0.161 | -0.19 | -0.133 |
| ERBB2 (erb-b2 receptor tyrosine kinase 2) | -1.15 | 0.83 | -0.198 | -0.0435 | -0.191 |
| IKBKE (inhibitor of nuclear factor kappa B kinase subunit epsilon) | -1.05 | 0.84 | -0.157 | -0.0305 | 0.0925 |
| INSR (insulin receptor) | 0.474 | 0.977 | -0.0262 | -0.11 | -0.0481 |
| PRKAR2A | 0.726 | 1 | -0.0654 | -0.0893 | 0.00917 |
| PTPN11 (protein tyrosine phosphatase non-receptor type 11) | -0.215 | 0.915 | -0.0966 | -0.127 | -0.109 |
| PSKH1 (protein serine kinase H1) | 0.482 | 0.978 | -0.138 | -0.109 | -0.0426 |
| BPTF (bromodomain PHD finger transcription factor) | 0.726 | 1 | -0.296 | -0.0893 | -0.0259 |
| ULK4 (unc-51 like kinase 4) | 0.726 | 1 | -0.151 | 0.0102 | -0.0259 |
| ROCK2 (Rho associated coiled-coil containing protein kinase 2) | 0.666 | 0.995 | -0.102 | -0.0725 | -0.0313 |
| STK16 (serine/threonine kinase 16) | 0.726 | 1 | -0.0781 | -0.00767 | 0.0184 |
| DLG2 (discs large MAGUK scaffold protein 2) | 0.726 | 1 | -0.137 | -0.0893 | -0.0259 |
| DLG4 (discs large MAGUK scaffold protein 4) | 0.726 | 1 | -0.0986 | 0.00622 | -0.0259 |
| RET (ret proto-oncogene) | 0.0169 | 0.936 | -0.00632 | -0.0562 | -0.0883 |

Individual results from above:
TRIO (trio Rho guanine nucleotide exchange factor), synergy score with cetuximab = -0.19
For “robust z-score, siRNA alone”, ROCK2 (Rho associated coiled-coil containing protein kinase 2) shows 0.666
Value of CHEK1 (checkpoint kinase 1) in “robust z-score, siRNA alone”: -2.37
PRKD1 (protein kinase D1), robust z-score, siRNA alone → 0.675
